Publication PMC9705430
Results are given in words; binding and its absence hold for the method and conditions named. In cells and extracts the contact can be indirect. Some binding calls cover weakened binding; strength is not graded here. For some of these results: Tags and fused reporters may be left off the sequences shown. Values belong to the molecule of their own block, whether it stands above or below them.

Chains of the proteins cited; added tags and fusions are not shown. Lines headed by an entry give the natural chain unless they say otherwise; changes in a name come on top.
UniProt Q80U70: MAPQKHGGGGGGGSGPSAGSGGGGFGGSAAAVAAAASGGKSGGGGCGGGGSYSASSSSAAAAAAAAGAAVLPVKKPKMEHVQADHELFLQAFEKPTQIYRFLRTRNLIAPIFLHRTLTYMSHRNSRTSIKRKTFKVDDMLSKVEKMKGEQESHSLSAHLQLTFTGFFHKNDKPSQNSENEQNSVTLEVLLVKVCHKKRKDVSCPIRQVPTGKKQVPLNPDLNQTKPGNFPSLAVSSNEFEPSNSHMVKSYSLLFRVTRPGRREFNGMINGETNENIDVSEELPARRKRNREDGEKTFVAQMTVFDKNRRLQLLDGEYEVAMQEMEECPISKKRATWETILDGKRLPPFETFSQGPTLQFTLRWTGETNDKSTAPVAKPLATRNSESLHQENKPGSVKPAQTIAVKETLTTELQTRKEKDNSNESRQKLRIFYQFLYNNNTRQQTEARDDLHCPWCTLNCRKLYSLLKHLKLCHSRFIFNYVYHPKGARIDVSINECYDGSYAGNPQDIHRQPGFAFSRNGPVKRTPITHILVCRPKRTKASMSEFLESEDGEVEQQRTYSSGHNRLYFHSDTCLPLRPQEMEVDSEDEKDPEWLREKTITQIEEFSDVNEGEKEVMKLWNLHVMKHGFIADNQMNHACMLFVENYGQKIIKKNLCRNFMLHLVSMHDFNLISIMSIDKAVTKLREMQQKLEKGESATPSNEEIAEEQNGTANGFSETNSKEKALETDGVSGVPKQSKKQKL
UniProt P97822: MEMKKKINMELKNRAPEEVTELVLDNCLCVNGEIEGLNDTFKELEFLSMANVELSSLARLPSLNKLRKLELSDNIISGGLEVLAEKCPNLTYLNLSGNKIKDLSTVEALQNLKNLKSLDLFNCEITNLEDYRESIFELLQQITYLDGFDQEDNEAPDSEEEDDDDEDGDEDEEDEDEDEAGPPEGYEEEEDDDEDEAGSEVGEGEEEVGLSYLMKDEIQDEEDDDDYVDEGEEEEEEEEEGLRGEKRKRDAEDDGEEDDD
UniProt Q3TKT4: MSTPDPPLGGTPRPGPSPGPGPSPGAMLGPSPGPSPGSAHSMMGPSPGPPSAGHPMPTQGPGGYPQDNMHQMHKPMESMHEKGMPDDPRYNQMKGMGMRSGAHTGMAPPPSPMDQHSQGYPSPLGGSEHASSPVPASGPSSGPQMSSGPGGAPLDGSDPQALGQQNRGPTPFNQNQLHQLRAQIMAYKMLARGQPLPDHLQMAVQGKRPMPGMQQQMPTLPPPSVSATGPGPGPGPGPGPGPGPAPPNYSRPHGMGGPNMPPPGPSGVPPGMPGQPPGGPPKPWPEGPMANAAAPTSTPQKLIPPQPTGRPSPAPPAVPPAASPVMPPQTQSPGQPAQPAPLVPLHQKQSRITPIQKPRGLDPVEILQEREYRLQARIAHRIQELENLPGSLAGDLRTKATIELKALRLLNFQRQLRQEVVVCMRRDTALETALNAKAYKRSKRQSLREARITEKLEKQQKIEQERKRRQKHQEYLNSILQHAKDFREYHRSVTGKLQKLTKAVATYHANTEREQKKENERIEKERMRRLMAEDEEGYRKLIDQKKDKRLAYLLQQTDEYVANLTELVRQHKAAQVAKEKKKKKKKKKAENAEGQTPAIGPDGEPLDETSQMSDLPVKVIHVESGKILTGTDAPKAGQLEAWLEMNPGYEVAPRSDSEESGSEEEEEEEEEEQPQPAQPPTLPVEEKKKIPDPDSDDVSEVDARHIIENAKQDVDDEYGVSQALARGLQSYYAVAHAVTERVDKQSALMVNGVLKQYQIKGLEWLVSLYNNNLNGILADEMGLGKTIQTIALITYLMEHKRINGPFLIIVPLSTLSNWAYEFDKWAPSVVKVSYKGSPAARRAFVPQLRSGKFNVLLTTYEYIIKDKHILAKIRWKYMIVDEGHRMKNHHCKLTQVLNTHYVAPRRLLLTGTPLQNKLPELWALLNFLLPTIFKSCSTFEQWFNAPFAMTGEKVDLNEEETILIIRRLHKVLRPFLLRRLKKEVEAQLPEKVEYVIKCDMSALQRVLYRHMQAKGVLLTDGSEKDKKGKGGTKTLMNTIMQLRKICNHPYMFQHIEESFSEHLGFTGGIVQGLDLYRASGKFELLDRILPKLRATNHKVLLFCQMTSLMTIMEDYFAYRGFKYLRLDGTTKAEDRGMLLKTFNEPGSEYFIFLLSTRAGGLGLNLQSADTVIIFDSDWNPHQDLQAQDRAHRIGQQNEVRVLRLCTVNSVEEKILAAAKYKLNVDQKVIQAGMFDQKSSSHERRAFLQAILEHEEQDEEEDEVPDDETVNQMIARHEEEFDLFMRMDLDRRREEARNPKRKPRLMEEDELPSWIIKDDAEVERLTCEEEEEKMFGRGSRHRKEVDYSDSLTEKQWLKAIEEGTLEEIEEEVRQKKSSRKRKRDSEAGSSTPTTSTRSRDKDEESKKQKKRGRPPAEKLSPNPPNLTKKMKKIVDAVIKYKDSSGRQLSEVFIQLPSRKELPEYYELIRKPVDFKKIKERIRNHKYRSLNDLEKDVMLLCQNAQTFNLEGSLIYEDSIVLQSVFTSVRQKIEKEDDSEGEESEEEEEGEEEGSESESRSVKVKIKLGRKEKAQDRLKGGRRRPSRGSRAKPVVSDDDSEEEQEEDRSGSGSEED
UniProt P97310: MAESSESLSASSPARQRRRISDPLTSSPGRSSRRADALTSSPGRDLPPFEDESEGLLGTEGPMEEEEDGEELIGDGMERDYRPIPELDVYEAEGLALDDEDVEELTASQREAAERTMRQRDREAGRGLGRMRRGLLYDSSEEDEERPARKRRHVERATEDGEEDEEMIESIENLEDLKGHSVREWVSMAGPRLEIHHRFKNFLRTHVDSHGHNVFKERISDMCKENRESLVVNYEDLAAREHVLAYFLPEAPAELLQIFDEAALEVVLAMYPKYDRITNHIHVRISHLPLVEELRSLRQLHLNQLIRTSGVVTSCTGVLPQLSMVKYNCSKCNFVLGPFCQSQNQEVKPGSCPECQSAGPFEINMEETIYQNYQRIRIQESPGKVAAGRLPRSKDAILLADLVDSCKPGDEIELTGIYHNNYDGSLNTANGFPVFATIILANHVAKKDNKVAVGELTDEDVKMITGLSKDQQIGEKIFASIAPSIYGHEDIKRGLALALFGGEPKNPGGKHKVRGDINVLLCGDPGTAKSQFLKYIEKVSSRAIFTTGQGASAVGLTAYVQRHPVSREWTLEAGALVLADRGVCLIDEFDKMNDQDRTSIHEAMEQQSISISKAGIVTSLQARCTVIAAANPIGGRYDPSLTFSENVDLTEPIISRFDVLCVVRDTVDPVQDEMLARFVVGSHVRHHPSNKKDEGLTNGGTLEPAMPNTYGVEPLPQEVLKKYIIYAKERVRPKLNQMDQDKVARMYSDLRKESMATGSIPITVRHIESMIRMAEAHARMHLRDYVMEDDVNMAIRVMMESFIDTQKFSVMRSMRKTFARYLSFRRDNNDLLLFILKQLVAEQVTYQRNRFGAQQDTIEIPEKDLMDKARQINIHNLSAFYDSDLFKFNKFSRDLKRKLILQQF
UniProt P17918: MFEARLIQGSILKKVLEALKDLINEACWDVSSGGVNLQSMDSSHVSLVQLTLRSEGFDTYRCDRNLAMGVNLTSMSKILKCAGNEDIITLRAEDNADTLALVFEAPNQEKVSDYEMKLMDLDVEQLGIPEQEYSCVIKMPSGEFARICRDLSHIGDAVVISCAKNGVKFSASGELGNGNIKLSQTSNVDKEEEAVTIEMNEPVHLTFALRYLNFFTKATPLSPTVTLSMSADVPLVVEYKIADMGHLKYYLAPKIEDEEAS
UniProt Q9WTM5: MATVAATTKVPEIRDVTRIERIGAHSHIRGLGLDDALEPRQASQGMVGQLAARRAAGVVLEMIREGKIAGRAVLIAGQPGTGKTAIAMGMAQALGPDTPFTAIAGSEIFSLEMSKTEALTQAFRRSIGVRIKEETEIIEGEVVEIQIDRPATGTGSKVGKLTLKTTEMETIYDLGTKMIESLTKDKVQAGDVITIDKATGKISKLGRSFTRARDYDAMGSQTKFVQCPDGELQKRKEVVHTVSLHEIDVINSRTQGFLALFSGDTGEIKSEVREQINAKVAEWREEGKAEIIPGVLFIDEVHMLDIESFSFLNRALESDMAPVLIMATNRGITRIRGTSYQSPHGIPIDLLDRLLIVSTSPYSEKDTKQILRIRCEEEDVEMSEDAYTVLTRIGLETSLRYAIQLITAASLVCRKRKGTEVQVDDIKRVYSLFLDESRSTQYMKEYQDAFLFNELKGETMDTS

Columns and labels:
[1] = target: T1, endogenous TY1-tagged PCGF1 (mouse) (UniProt Q8R023); assay: co-IP; pull-down experiments with endogenous TY1-tagged PCGF1 in IdHPCs; read-out not given
T1 sequence: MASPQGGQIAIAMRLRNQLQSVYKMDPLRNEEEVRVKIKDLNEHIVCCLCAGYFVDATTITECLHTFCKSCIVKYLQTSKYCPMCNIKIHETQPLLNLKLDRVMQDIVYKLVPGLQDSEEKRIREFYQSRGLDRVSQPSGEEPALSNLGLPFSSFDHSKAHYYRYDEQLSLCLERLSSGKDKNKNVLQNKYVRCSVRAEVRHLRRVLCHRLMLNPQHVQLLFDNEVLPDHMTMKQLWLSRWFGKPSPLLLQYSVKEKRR

[2] = target: T2, PCGF1 (of the immunoprecipitation with or without benzonase) (UniProt Q8R023); assay: co-IP; IP of PCGF1 and immunoblot, with or without 250 Units Benzonase per mg protein (MgCl2 up to 1.5 mM); 0.1% NP-40 lysis buffer (250 mM NaCl), washes with 350 mM NaCl
T2 sequence: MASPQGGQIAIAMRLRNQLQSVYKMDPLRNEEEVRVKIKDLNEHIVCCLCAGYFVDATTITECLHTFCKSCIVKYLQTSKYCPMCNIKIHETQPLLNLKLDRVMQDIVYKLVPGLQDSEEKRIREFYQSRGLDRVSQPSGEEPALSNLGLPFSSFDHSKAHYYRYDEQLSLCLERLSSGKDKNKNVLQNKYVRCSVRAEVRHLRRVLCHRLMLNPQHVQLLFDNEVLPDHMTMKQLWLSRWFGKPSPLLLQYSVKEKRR

[3] = target: SUZ12 (mouse (endogenous in IdHPCs)) (UniProt Q80U70); assay: co-IP; IP of SUZ12 and immunoblot for AEBP2, JARID2 or PALI1, control and Pcgf1-KO IdHPCs; 0.1% NP-40 lysis buffer (250 mM NaCl), washes with 350 mM NaCl

binding [1]: binds
Molecule: ANP32E (from UniProt P97822 1-260)

binding [2]: binds
Molecule: BRG1 (encoded by Smarca4) (from UniProt Q3TKT4 1-1613)

binding [1]: binds
Molecule: DNA helicase complexes (MCM2-7) (from UniProt P97310 1-904; P25206 1-812; P49717 1-862; P49718 1-734; P97311 1-821; Q61881 1-719)

binding [2]: binds
Molecule: PCNA (from UniProt P17918 1-261)

binding [1]: binds
Molecule: RUVBL2 (from UniProt Q9WTM5 1-463)

binding [3]: binds
B1: AEBP2 (protein, UniProt Q9Z248 1-504)
chain: MAAALADMADLEELSRLSPLSPGSPGPAARGRAEPPEEEEEEDDEEAEAEAVAALLLNGGAGGGAGGGEAETMSEPSPESASQAGGDEDEDEEDDEDEGSSSGGAEEESSAESLVGSSSGGCSGDETRSLSPGAASSSSGDGDGKEGLEEPKGPRGGPGGPGSSGGGSSSSSVVSSGGDEGYGTGGGGSSATSGGRRGSLEMSSDGEPLSRMDSEDSISSTLMDIDSTISSGRSTPAMMNGQGSTTASSKHIAYNCCWDQCQACFNSSPDLADHIRSIHVDGQRGGVFVCLWKGCKVYNTPSTSQSWLQRHMLTHSGDKPFKCVVGGCNASFASQGGLARHVPTHFSQQNSSKVSSQPKAKEESPSKAGMNKRRKLKNKRRRSLPRPHDFFDAQTLDAIRHRAICFNLSAHIESLGKGHSVVFHSTVIAKRKEESGKIKLLLHWMPEDILPDVWVNESERHQLKTKVVHLSKLPKDTALLLDPNIYRTMPQKRLKRFDILNFPR

binding [3]: binds
B2: JARID2 (protein, UniProt Q62315 1-1234)
chain: MSKERPKRNIIQKKYDDSDGIPWSEERVVRKVLYLSLKEFKNAQKRQHGEGLAGSLKAVNGLLGNAQAKALGPASEQSENEKDDASQVSSTSNDVSSSDFEEGPSRKRPRLQAQRKFAQSQPNSPSTTPVKIVEPLLPPPATQISDLSKRKPKTEDFLTFLCLRGSPALPNSMVYFGSSQDEEDVEEEDDETEDVKATTNNASSSCQSTPRKGKTHKHVHNGHVFNGSSRSAREKEPAHKHRSKEATPGKEKHSEPRADSRREQASGAQPTAASAAASSAKGLAANHQPPPSHRSAQDLRKQVSKVNGVTRMSSLGAGTNSAKKIREVRPSPSKTVKYTATVTKGTVTYTKAKRELVKETKPNHHKPSSAVNHTISGKTESSNAKTRKQVLSLGGASKSTGPAASGLKASSRLNPKSCTKEVGGRQLREGLRNSKRRLEEAQQVDKPQSPPKKMKGVAGNAEAPGKKASAASGEKSLLNGHVKKEVPERSLERNRPKRAAAGKNMLGKQAHGKTEGTPCENRSTSQPESSHKPHDPQGKPEKGSGKSGWAAMDEIPVLRPSAKEFHDPLIYIESVRAQVEKYGMCRVIPPPDWRPECKLNDEMRFVTQIQHIHKLGRRWGPNVQRLACIKKHLRSQGITMDELPLIGGCELDLACFFRLINEMGGMQQVTDLKKWNKLADMLRIPKTAQDRLAKLQEAYCQYLLSYDSLSPEEHRRLEKEVLMEKEILEKRKGPLEGHTESDHHKFHSLPRFEPKNGLVHGVTPRNGFRSKLKEVGRAPLKTGRRRLFAQEKEVVKEEEEDKGVLNDFHKCIYKGRSVSLTTFYRTARNIMNMCFSKEPAPAEIEQEYWRLVEEKDCHVAVHCGKVDTNTHGSGFPVGKSEPFSRHGWNLTVLPNNTGSILRHLGAVPGVTIPWLNIGMVFSTSCWSRDQNHLPYIDYLHTGADCIWYCIPAEEENKLEDVVHTLLQGNGTPGLQMLESNVMISPEVLCKKGIKVHRTVQQSGQFVVCFPGSFVSKVCCGYNVSETVHFATTQWTSMGFETAKEMKRRHIAKPFSMEKLLYQIAQAEAKKENGPTLSTISALLDELRDTELRQRRLLFEAGLHSSARYGSHDGNSTVADGKKKPRKWLQLETSERRCQICQHLCYLSMVVQENENVVFCLECALRHVEKQKSCRGLKLMYRYDEEQIISLVNQICGKVSGKHGGIENCLNKPTPKRGPRKRATVDVPPSRLPSS
